Screening data, single-dose tests

Amino acid sequences for entries named in this document (tags omitted). Residues count along the entry.
UniProt Q4DA54, 1-478: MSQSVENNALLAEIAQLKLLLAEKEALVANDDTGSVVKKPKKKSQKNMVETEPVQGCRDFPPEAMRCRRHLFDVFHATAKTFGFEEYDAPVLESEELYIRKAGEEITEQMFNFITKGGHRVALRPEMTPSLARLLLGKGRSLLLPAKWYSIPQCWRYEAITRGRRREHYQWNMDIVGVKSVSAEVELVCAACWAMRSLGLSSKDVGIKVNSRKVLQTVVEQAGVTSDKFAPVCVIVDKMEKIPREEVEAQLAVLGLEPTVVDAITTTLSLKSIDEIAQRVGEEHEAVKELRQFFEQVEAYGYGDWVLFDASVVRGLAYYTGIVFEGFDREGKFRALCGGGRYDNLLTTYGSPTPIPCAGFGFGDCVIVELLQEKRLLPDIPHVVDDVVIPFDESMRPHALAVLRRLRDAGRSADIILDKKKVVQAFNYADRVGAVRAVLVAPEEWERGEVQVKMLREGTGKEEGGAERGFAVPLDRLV
UniProt P9WNZ1, whole entry: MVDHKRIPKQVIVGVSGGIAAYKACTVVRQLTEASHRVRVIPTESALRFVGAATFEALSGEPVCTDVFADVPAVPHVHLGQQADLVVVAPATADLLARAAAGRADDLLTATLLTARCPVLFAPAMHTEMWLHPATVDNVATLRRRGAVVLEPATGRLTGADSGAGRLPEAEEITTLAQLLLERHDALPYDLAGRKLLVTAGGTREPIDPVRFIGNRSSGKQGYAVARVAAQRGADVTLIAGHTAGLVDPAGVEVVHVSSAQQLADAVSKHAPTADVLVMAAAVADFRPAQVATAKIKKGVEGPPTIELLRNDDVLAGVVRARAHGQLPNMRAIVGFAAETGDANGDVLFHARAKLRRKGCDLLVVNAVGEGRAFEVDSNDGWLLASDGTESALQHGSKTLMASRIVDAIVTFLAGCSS
UniProt P9WPC5, whole entry: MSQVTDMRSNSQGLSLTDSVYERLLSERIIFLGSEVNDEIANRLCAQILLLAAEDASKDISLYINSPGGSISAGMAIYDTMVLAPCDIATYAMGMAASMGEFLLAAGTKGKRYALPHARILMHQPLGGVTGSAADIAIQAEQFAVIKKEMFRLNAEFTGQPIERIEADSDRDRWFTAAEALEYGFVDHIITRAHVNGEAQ
UniProt P9WPC3, whole entry partner: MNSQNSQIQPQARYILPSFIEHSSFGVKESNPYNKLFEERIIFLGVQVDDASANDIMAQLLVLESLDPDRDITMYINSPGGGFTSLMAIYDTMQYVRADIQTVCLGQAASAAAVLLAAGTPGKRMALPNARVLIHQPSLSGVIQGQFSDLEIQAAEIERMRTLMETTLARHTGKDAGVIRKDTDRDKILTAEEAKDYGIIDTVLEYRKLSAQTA
UniProt Q8IDJ8, 1-583: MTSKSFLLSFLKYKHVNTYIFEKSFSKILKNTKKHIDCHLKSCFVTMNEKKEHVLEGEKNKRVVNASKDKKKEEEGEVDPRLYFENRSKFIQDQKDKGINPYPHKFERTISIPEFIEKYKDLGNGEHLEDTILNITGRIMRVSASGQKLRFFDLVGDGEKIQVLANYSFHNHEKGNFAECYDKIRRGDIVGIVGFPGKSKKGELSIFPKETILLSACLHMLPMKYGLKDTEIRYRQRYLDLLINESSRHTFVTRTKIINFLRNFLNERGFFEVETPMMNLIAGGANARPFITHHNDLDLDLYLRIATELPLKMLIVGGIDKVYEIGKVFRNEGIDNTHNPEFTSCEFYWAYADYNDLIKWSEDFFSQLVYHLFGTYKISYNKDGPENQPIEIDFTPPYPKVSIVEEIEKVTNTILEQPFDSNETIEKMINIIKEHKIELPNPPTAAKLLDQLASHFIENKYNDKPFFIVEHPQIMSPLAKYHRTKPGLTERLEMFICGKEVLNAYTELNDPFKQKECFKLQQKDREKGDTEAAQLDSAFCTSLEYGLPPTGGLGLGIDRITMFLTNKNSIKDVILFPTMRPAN

A: 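Cell assay of Leishmania donovani living inside macrophages; the read-out is not stated. Tested at 30 µM. The record gives no direction; compounds that gave an IC50 in retests scored well above the rest, so higher reads as stronger inhibition. About 69,000 compounds were tested under these conditions; 1.5% (about 1,000) showed 50% or more at least once.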
B: 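Enzyme assay of histidyl-tRNA synthetase; the read-out is not stated. Target: Histidine-tRNA ligase, Trypanosoma cruzi CL Brener (UniProt Q4DA54). Tested at 30 µM. Higher reads as stronger inhibition (inferred: compounds with an IC50 in retests scored well above the rest). Size under these conditions: about 69,000 compounds, about 31 of them at 50% or above in at least one test.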
C: 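Coenzyme A biosynthesis protein CoaBC, Mycobacterium tuberculosis (UniProt P9WNZ1). Enzyme assay of CoaBC with a phosphate dye (Biomol Green) read at 650 nm. Concentration: 30 µM. Direction is inferred from only a few compounds that gave an IC50; most scored high, so higher reads as stronger inhibition. Most strong results did not repeat in a second test. About 67,000 compounds were tested under these conditions; 0.06% (about 40) showed 50% or more at least once.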
D: 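Protease assay of ClpP1P2, read by the AMC dye that it sets free. Target: ClpP1P2, Mycobacterium tuberculosis (UniProt P9WPC5 and UniProt P9WPC3). Tested at 50 µM. Direction is inferred from only a few compounds that gave an IC50; most scored high, so higher reads as stronger inhibition. Most other retested compounds had strongly negative values. About 69,000 compounds were tested under these conditions; 0.015% (about 10) showed 50% or more at least once.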
E: 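Enzyme assay of the cytosolic lysyl-tRNA synthetase in 384-well plates, read by luminescence. Target: Lysine-tRNA ligase, Plasmodium falciparum 3D7 (UniProt Q8IDJ8). Compounds at 30 µM. Direction is inferred from only a few compounds that gave an IC50; most scored high, so higher reads as stronger inhibition. Of about 69,000 compounds tested this way, about 49 (0.071%) reached 50% or more in at least one test.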

Values are the deposited “Percent Effect”, in %. How 0% and 100% were set is not recorded. Most values in the screen are low, and negative values occur. Compounds were drawn at random from those tested, without regard to their results. Two or more numbers in one place are separate tests of the same structure; such repeats can differ widely. A dash means the value is not listed here; it may have been measured.

Compound,A,B,C,D,E
Cc1cc(C)c2nc(CN3C[C@H](CCO)[C@@H](N)C3)cc(O)c2c1,13.81,8.163,-13.89,9.018,3.603
Cc1noc(C)c1-c1nc(C2CCCNC2)ccc1CO.Cl.Cl (stereo not shown),17.18,-,-,-,-
CCc1cc(N2C[C@H](C3CC3)[C@@H](N)C2)nc(N2CCCC2)n1,72.46,4.819,2.723,0.48,-0.7029
CCS(=O)(=O)N1CCc2ccc(NC(=O)Nc3cccc(F)c3)cc21,17.8,-0.5025,-0.1203,11.23,0.05815
CCCC(O)CN1CCC(=O)N(CCOC)Cc2ccccc21 (stereo not shown),-0.8381,4.494,1.211,-1.906,5.229
CCCN(CC1CC1)C(=O)Nc1ccc(N2CCSCC2)cc1C,-9.475,2.463,1.582,-1.677,9.274
N#Cc1ccccc1CN1C[C@@H]2CC[C@H](C1)N(CC1CCC1)C2=O,-,0.5025,3.739,-11.72,-0.5515
O=C(O)C(F)(F)F.[H][C@]12CCN(Cc3ccc(C)s3)CC[C@]1([H])N(S(C)(=O)=O)CCO2,5.568,-,-,-,-
Cc1ccc(C)c(OC2CCN(C(=O)CNc3ccccc3Cl)CC2)c1,-8.825,1,-6.78,0.4394,-5.852
Cc1nn(C)c(N(C)C)c1CNCCNS(C)(=O)=O,28.75,1.527,1.295,16.32,1.336
CCc1noc(-c2ccc(SCC(=O)O)nc2)n1,-7.838,10.24,-2.635,-11.61,6.267
Cc1nc(C)n(CC2CN(CC(=O)NC3CCCC3)CCO2)n1 (stereo not shown),-15.35,5.747,4,-2.909,1.004
N#Cc1cccc(S(=O)(=O)NC2CCN(Cc3ccccc3)C2=O)c1 (stereo not shown),8.969,3.759,-1.799,0.3755,9.279
Cc1ncc2c(n1)CN(CC(=O)Nc1cccnc1)CC2,-10.19,5.202,6.003,-30.55,1.06
O=C(O)C(F)(F)F.O=C(O)C(F)(F)F.[H][C@@]12CCN(C(=O)c3ccc(C)nc3)[C@]1([H])CCC(=O)N2CCN(C)C,1.454,-,-,-,-
Cc1cc(CN(C)C(=O)CN2CCCC2=O)no1,26.81,11.88,-0.4819,22.11,1.075
c1coc(CN2CCn3c(CN4CCOCC4)nnc3C2)c1,0.8059,3.448,7.172,-1.917,0.5829
Cc1ccc(N2CCN(C(=O)CCc3n[nH]c(C)n3)CC2=O)cc1,-2.303,-0.4292,7.536,-6.372,3.183
Cc1ccc(O)c(CN(CCCn2ccnc2)Cc2ccc(C)s2)c1,-,8.209,12.65,-1.998,0.8679
CCCN1CCCn2nc(CNC(=O)CN(C)C3CCCC3)cc2C1,19.5,10.27,3.846,-3.175,2.977
c1csc(N2CCCN(Cc3noc(C4CC4)n3)CC2)n1,20.24,9.714,4.301,5.305,6.611
[H][C@@]12CN(S(=O)(=O)N(C)C)C[C@]1([H])N(Cc1ccccc1OC)C(=O)O2,28.51,-,-,-,-
CNC(=O)c1sc(C(NC(=O)c2ccccc2)C2CC2)nc1C (stereo not shown),23.69,7.879,-4.136,-5.617,2.744
Cc1cccc(C)c1Oc1ncccc1CNC(=O)C1(C)CCCNC1 (stereo not shown),27.21,3.784,2.273,5.736,5.905
Cc1noc(C(C)N(C)CC(=O)NCCc2ccc(Cl)cc2)n1 (stereo not shown),10.17,1,1.488,-3.008,-2.918
CCOc1cc(CN(C)CC(=O)O)ccc1OC(F)F.Cl,20.08,-,-,-,-
O=S(=O)(CC1CCCCC1)NCc1ccc(O)nc1,7.028,-0.8403,8.065,1.506,1.095
O=C(c1c(F)cc(Br)cc1F)N1CCc2cnccc21,-32.85,11.6,4.369,-8.362,4.965
CCCN1CCC(c2nc3ccc(-c4cccc(OC)c4)cn3n2)CC1,-,10.55,9.035,7.612,3.08
NC(=O)Nc1cc(F)ccc1SCC(F)F,-12.62,14.29,3.926,3.758,2.97
CS(=O)(=O)NC1CC2(CCN(CC3CC3)CC2)Oc2ccccc21 (stereo not shown),-,3.738,-8.889,-5.742,-1.296
CCC(O)CN(c1ccccc1)S(=O)(=O)c1cnc(C)s1 (stereo not shown),-18.62,-5.422,0.122,-5.977,-5.32
CS(=O)(=O)NC1CC(=O)N(c2ccccc2Cl)C1 (stereo not shown),39.44,11.92,-7.031,7.151,4.076
Cc1cc(C)c2cc(CNCC3CCCO3)c3nn(C)c(=O)n3c2c1 (stereo not shown),11.27,-2.703,1.944,-51.2,3.95
COc1cccc(S(=O)(=O)CCN2CCCCC2)c1,37.73,1.245,-7.589,12.42,-2.002
COCC(=O)N1CCCC(COc2ccccc2C)C1 (stereo not shown),0.2743,7.389,-2.581,-5.892,4.883
Cc1ccc(C(=O)Nc2cn[nH]c2)cn1,20.4,8.745,-3.457,20.92,4.402
CC(CNC(=O)c1ccncc1F)Oc1ccc(F)cc1 (stereo not shown),-22.24,6.14,6.774,-7.208,-2.085
Cc1nc(C)n(C2CCCN(C(=O)CCCc3ccccn3)C2)n1 (stereo not shown),-0.3864,3.448,4,-11.36,1.206
O=S(=O)(NCC1(O)CCCC1)c1ccccc1Br,3.804 & 9.19,4.124,1.48,-11.58,2.184
COC(=O)C1CN(CC(=O)Nc2cc(F)ccc2F)c2ccccc21 (stereo not shown),32.84,-5.319,8.46,1.618,-1.703
CN(CCc1ccncc1)C(=O)C1CSCN1C(=O)C1CCCC1 (stereo not shown),-10.73,6.061,2.593,-0.6746,-1.917
CN(c1c(F)cccc1F)S(=O)(=O)c1cc2c(c(C(=O)O)c1)OCCO2,7.369,1.807,1.341,0.6849,-0.1394
CC(C)(C)OC(=O)NC(C)(C)c1noc(CSc2ccccn2)n1,19.14,-2.041,3.87,3.267,5.596
CCN1CCCC(C)(C(=O)NCc2nncn2CCc2ccccc2)C1 (stereo not shown),-33.97,10,1.488,-4.104,-0.5619
CCc1nccn1C1CCCN(C(=O)CCc2nc(C(C)C)no2)C1 (stereo not shown),4.931,4.082,-4.365,-0.2486,1.154
[H][C@@]12C[C@H](C(=O)N(C)C)CN(Cc3ccccn3)[C@]1([H])CCO2,-8.69,-,-,-,-
CCn1ccc(NC(=O)CCn2nc(C)c3ccccc32)n1,30.34,4.911,4.847,-23.84,-0.7703
CC(=O)N1CCCN(C(=O)NCCOc2ccc3c(c2)CCC3)CC1,11.72,2.053,2.368,-20.55,0.1807
COCCn1cc2c(n1)C(CNCc1ccc(F)cc1)OCC2 (stereo not shown),-,4.813,7.246,3.78,9.646
Cc1cnn(CCNCc2nnc(C3CC3)o2)c1,8.939,1.901,0.7905,10.4,-4.073
O=C(O)C(F)(F)F.O=C(O)C(F)(F)F.[H][C@@]12CN(Cc3ccsc3)CCC[C@]1(C(=O)O)CN(c1ccccn1)C2,3.534,-,-,-,-
COc1ccc(CC2(CO)CCN(c3cc(C#N)ccn3)CC2)cc1,-33.94,5.217,-2.917,-50.14,-5.953
O=C(Nc1cnn(CCN2CCOCC2)c1)c1ccccn1,18.27,1.141,-0.7979,2.252,-1.637
Cc1nc(C)n(CC2CCCN2CCCc2nc3ccccc3o2)n1 (stereo not shown),37.82,7.558,3.509,-13.89,2.131
O=C(N[C@@H]1c2ccccc2C[C@@H]1O)C1CCN(Cc2ccco2)CC1,39.26,1.98,-1.332,7.452,2.252
CCOC(C)c1noc(CN2CCCNCC2)n1 (stereo not shown),17.88,7.097,-4.831,0.5143,4.693
COc1ccc(C(CO)NC(=O)Nc2cccc(F)c2)cc1 (stereo not shown),18.32,7.216,-6.846,-1.936,7.276
COc1cccc(COCC(=O)N2CCN(CC(C)(C)O)CC2)c1,-19.5,1.901,4.521,-3.772,-0.7883
CC(C)CC(NC(=O)c1cc(C2CC2)n[nH]1)c1ncnn1C (stereo not shown),-8.758,1.205,0.9901,1.329,2.933
COCCN(C)c1ccc(NCc2cscn2)nc1,-10.93,19.48,-,-7.897,6.616

Some entries from above, unchanged:

COCCN(C)c1ccc(NCc2cscn2)nc1 read A: -10.93%; B: 19.48%; D: -7.897%; E: 6.616%.
O=C(O)C(F)(F)F.[H][C@]12CCN(Cc3ccc(C)s3)CC[C@]1([H])N(S(C)(=O)=O)CCO2 read A: 5.568%.
Cc1nn(C)c(N(C)C)c1CNCCNS(C)(=O)=O read A: 28.75%; B: 1.527%; C: 1.295%; D: 16.32%; E: 1.336%.
Cc1cnn(CCNCc2nnc(C3CC3)o2)c1 read A: 8.939%; B: 1.901%; C: 0.7905%; D: 10.4%; E: -4.073%.
O=S(=O)(CC1CCCCC1)NCc1ccc(O)nc1 read A: 7.028%; B: -0.8403%; C: 8.065%; D: 1.506%; E: 1.095%.
COc1cccc(S(=O)(=O)CCN2CCCCC2)c1 read A: 37.73%; B: 1.245%; C: -7.589%; D: 12.42%; E: -2.002%.
O=S(=O)(NCC1(O)CCCC1)c1ccccc1Br read A: 3.804% & 9.19%; B: 4.124%; C: 1.48%; D: -11.58%; E: 2.184%.
O=C(N[C@@H]1c2ccccc2C[C@@H]1O)C1CCN(Cc2ccco2)CC1 read A: 39.26%; B: 1.98%; C: -1.332%; D: 7.452%; E: 2.252%.

From ChEMBL document CHEMBL3988442, “University of Dundee, Small-Polar-MMV Screening Library” (2021).